Out of some 94,000 compounds screened, about 280 (0.3%) were called active. The shares of active, inactive and inconclusive entries below differ from those in the screen.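 How the source made its calls: active means activation above 40%, about the mean plus 3 SD, also judged a hit on visual image review; inconclusive means activation above 40% but not a hit on visual review; inactive means activation not above 40% and no visual hit.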
Test: enhancers of NFkB p65 translocation in HUVEC – imaging, IL-1B stimulus, high-content imaging, primary screen (AID 819);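 further: percent activation is computed from the nuclear over cytoplasmic p65 intensity ratio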
Conditions: HUVEC IL-1B NFkB p65 nuclear translocation imaging; at 2 µM; stronger effect = higher value

Compound | activation
CCOc1cc2[nH]c(=O)n(CCCN3CCCC3=O)c(=O)c2cc1OCC | inconclusive: 62.6%
COc1ccccc1C(c1nnnn1C(C)(C)C)N1CCCCCC1 (stereo not given) | inconclusive: 56.6%
COc1ccc(-c2nnc3n2N=C(C)CS3)cc1 | inconclusive: 52.2%
COc1ccc(C2CC(=O)C=C(NCCC(C)C)C2)cc1 (stereo not given) | active: 51.7%
O=C(COC(=O)CCCN1C(=O)c2ccccc2C1=O)Nc1ncc(Cl)cc1Cl | inconclusive: 46.5%
O=C(NCCc1ccc(Cl)cc1)C1CCC(=O)N1C1CCCC1 (stereo not given) | inconclusive: 78.3%
CCn1nc(NC(=O)c2ccccn2)c2cc3cccc(C)c3nc21 | active: 50.7%
Cn1c(=O)c(-[n+]2ccccc2)c([O-])c2ccccc21 | inconclusive: 43.3%
CCOc1ccc2cc(C#N)c(SCC(=O)NC(C)CC)nc2c1 (stereo not given) | inconclusive: 69.8%
CCCN1CCN(C(=O)c2cccc3c2C(=O)N(CCOC)C3)CC1 | inactive: 7.15%
N#CCCCCn1c(-c2cncs2)nc2ccccc21 | inconclusive: 46.9%
C=CCNC(=O)c1ccccc1NC(=O)c1ccc(Cl)c(S(=O)(=O)Nc2cc(C)ccc2C)c1 | inconclusive: 86.7%
Cc1cc(C(=O)N2CCN(Cc3ccccc3)CC2)on1 | inactive: 32.2%
COc1ccc(C2NC(C(=O)O)CS2)cc1COCC(F)(F)F (stereo not given) | inconclusive: 53.3%
Cc1nc2ccccc2nc(C)c1=NO | inactive: -11.8%
COc1ccc(C2=NOC(C(=O)NCc3ccccc3)C2)cc1 (stereo not given) | inactive: 5.12%
CC(C)CN1C(=O)c2ccc(C(=O)NCc3ccc4c(c3)OCO4)cc2C1=O | inactive: 1.93%
O=c1[nH]c2ccc(Cl)cc2c(-c2ccccc2)c1CN1CCOCC1 | active: 113%
CCC(C)(C)n1nnnc1C(c1ccncc1)N1CCC(Cc2ccccc2)CC1 (stereo not given) | inconclusive: 43.6%
COc1ccc(-n2c(Cc3cccn3C)nnc2SCC(=O)NCC2CCCO2)cc1 (stereo not given) | inactive: -37.4%

Compound | activation
Cc1ccc(C(=O)COC(=O)CNS(=O)(=O)c2ccccc2)cc1[N+](=O)[O-] | inconclusive: 98%
Cc1noc(C)c1C(=O)N1CCCC1 | inconclusive: 42.1%
CCC(C)(NC(=O)c1ccccn1)C(=O)NC1CCCCC1 (stereo not given) | inconclusive: 42.2%
C/C(=N\NC(=O)c1cccc(C)c1)c1ccc(N2CCOCC2)cc1 | inactive: 16.5%
CCc1ccc2oc(=O)cc(CN3CCC(C)CC3)c2c1 | inconclusive: 40.8%
CC(=O)NCC(=O)OCC(=O)c1ccc(C)c(C)c1 | inconclusive: 44.1%
O=C(N1CCOCC1)N1CCN(C(c2ccccc2)c2ccccc2)CC1 | inconclusive: 67.5%
CCCCCCC(=O)N(O)C1CC(=O)N(c2ccc(Br)cc2)C1=O (stereo not given) | active: 47.8%
COC(=O)c1ccc(CSc2nnc(-c3ccncc3)n2Cc2ccccc2)o1 | inactive: -2.01%
COCCn1nnnc1C(c1cccs1)N1CCN(c2nc3ccccc3s2)CC1 (stereo not given) | inconclusive: 59.6%
COc1ccc(CNC(=O)C(c2ccco2)N(Cc2cccs2)C(=O)Cc2cccs2)cc1 (stereo not given) | active: 41%
O=C(NCCc1ccccc1)c1cc2ncc(Br)cn2n1 | inconclusive: 46.3%
Cc1ccc(C2=[N+]([O-])C3(CCCCC/C3=N\NC(N)=S)N(O)C2(C)C)o1 (stereo not given) | inactive: 5.34%
O=c1[nH]c2ccccc2n1CCCOc1ccccc1 | inconclusive: 60.9%
O=C(CSc1nnc(-c2ccc(F)cc2)o1)Nc1ccccc1N1CCOCC1 | inconclusive: 42.9%
CCOC(=O)c1ccc2c(c1)N(CC)/C(=C\C=C1/SC(=S)N(CC)C1=O)N2CC | inconclusive: 43.7%
O=C(c1ccc(COc2ccccc2Br)cc1)N1CCCCC1 | active: 54.3%
Cn1c(=O)n(Cc2ccccc2)c(=O)c2c1nc1n2CCCN1Cc1ccccc1 | inconclusive: 45.5%
Cc1cccc(NC(=S)N/C(=N/S(=O)(=O)c2ccccc2)c2ccccc2)c1 | inconclusive: 43.9%
O=C(Cn1c(=O)sc2ccccc21)Nc1ccccc1 | inconclusive: 40.8%

Looked up by compound from above, three records:
Compound | activation
Cc1noc(C)c1C(=O)N1CCCC1 | inconclusive: 42.1%
COCCn1nnnc1C(c1cccs1)N1CCN(c2nc3ccccc3s2)CC1 (stereo not given) | inconclusive: 59.6%
COC(=O)c1ccc(CSc2nnc(-c3ccncc3)n2Cc2ccccc2)o1 | inactive: -2.01%

Remaining list, next part

Compound | activation
Cn1c(COc2ccc3ccccc3c2)nnc1SCC(=O)OC1CCCCC1 | active: 41.1%
Cc1cccc(Nc2nc(N)nc(CN3CCN(c4ccccc4F)CC3)n2)c1 | inconclusive: 42.6%
CCCCN(CC)CCNS(=O)(=O)c1ccc2c(c1)oc(=O)n2C | inconclusive: 41.5%
Cn1c(=O)c(C(=O)Nc2ccccn2)c(O)c2ccccc21 | inactive: -7.48%
COc1cc(OC)cc(C(C)=O)c1 | inconclusive: 84.2%
CCNC(=O)CN(Cc1ccccc1)S(=O)(=O)c1ccccc1 | inactive: -35.5%
N#Cc1nc(-c2ccccc2F)oc1N1CCCC1 | inconclusive: 40.4%
Cc1ccc(C(=O)NCCSc2ccc(Cl)cc2)cc1[N+](=O)[O-] | inactive: 6.17%
O=C1CC(C(=O)O)c2ccccc2N1 (stereo not given) | inconclusive: 44.9%
Cc1ccc(CNC(=O)c2ccc(CNc3c(N4CCCC4)c(=O)c3=O)cc2)cc1 | active: 41.1%
On1c2c(c3c4nonc4ccc31)CCCC2 | inconclusive: 40.2%
O=C(CNC(=O)c1cc2c(s1)CCC2)Nc1ccccc1Br | inconclusive: 43.6%
CCCN(CCC)c1nc(N)c(C#N)c(CC#N)c1C#N | inconclusive: 45.4%
CC(C)C(=O)Nc1cccc(S(=O)(=O)c2cccc(NC(=O)C(C)C)c2)c1 | inconclusive: 40.8%
O=C(CNC(=O)c1cccs1)NCC(=O)OCc1ccccc1Cl | inconclusive: 85.3%
Cc1ccc(Cl)cc1N1CCN(S(=O)(=O)c2ccc3c(c2)oc(=O)n3C)CC1 | inconclusive: 52.3%
CCS(=O)(=O)c1ccc2oc(SCC(=O)c3ccco3)nc2c1 | inconclusive: 40.7%
CCC(=O)N1CCc2cc(S(=O)(=O)NCCC(=O)Nc3cc(C)cc(C)c3)ccc21 | inconclusive: 52.8%
Cc1ccc(NC(=O)c2oc3ccc(S(=O)(=O)N4CCOCC4)cc3c2C)cc1C | inconclusive: 45.4%
COC(=O)CSc1nnc(Cc2cc(=O)[nH]c(=O)[nH]2)n1-c1cccc(OC)c1 | inconclusive: 126%
